# The list does not hold the whole screen: it covers a few groups of compounds. Other doses and runs of a compound may be missing. T/C is the treated group as % of the vehicle group. Some entries give survivors of the animals treated and no T/C: the source holds a T/C of zero for them, seemingly a mark for toxic or unscored doses. Some doses without a T/C left all or most animals alive at the check, yet need not have been tolerated: survival well below the control is almost never listed, so the zero probably covers shortened survival too. Survivors were counted at the toxicity check, usually on the fifth day, unless a day is given; later deaths do not show. Schedule codes are those of the source, taken here to give the interval after Q, in days (D) or hours (H), and the number of doses after X. Some entries hold several experiments; their values stand side by side, smallest first. For survival time, the PubChem record calls one and a half times the control and up active, and a quarter to a half above the control has no call in these data; cut-offs in other NCI protocols can differ.
# Test system: Gardner 6C3HED lymphosarcoma ip, C3AKF1 mice, survival T/C
# Assay: NCI In Vivo Anticancer Drug Screen. Data for tumor model Lymphosarcoma Gardner 6C3HED (intraperitoneal) in C3AKF1 (CHKRF1) mice
# Conditions: T/C endpoint: survival time, mean or median, schedule: Q01DX010 (ip), vehicle: saline, higher T/C = longer survival
# Experimental: The antitumor activity of compounds was measured in mice bearing transplantable tumors. Survival or tumor size were measured and the results are expressed as the measurement made in the treated group (T) divided by the measurement made in the vehicle treated control group (C). The tumor model used in this assay is Lymphosarcoma Gardner 6C3HED (intraperitoneal) in C3AKF1 (CHKRF1) mice
structure (smiles),measurement,setting,value
NC1CCCCC1.O=P(O)(N(CCCl)CCCl)N1CC1,T/C,dose: 1.25 mg/kg/injection,92 % of control
same,T/C,dose: 2.5 mg/kg/injection,100 % of control
same,T/C,dose: 5.0 mg/kg/injection,118 % of control
same,T/C,dose: 10.0 mg/kg/injection,151 % of control
CN(N=O)C(=N)N[N+](=O)[O-],T/C,dose: 8.0 mg/kg/injection,185 and 190 % of control
same,T/C,dose: 16.0 mg/kg/injection,110 and 128 % of control
same,T/C,dose: 32.0 mg/kg/injection,95 % of control
same,survivor count,dose: 32.0 mg/kg/injection,6 of 6
same,survivor count,dose: 64.0 mg/kg/injection,3 of 6 and 5 of 6
Cc1[nH]c(=O)[nH]c(=O)c1N(CCCl)CCCl,T/C,dose: 0.5 mg/kg/injection,118 % of control
same,T/C,dose: 1.0 mg/kg/injection,103 % of control
same,T/C,dose: 2.0 mg/kg/injection,129 % of control
same,T/C,dose: 4.0 mg/kg/injection,200 % of control

# Source: PubChem BioAssay AID232 (DTP/NCI, 2004)
